Where a name gives a salt, the structure may show the parent alone. For at least one compound, name, drawing or mass did not settle the structure.
Key:
[1] = test system: autophagy flux (LC3-II) in Huh7 cell line; experiment: Autophagy flux, LC3-II immunoblot with/without Bafilomycin, Huh7 cell line; format: cell-based; conditions: 24 hours of treatment
Method: (§1) Since compound 2-3 induced an inhibition of the proteolytic activity of cathepsins B, D and/or L (see example 1) supporting an inhibition of some lysosomal functions which can affect the cellular autophagy flux, the capacity of compound 2-3 to modulate the cellular autophagy processes and functions was evaluated in two Hepatocellular carcinoma (HCC) cell lines: Huh7 and HepG2. For this purpose, the accumulation of LC3-II (Light Chain 3 phosphatidylethanolamine conjugate) in presence or absence of compound 2-3 was analyzed using immunoblot analysis of LC3-II.
(§2) The HepG2 cell line was maintained in DMEM low glucose (Cat #21885025, ThermoFischer) containing 1% penicillin-streptomycin (Cat #P06-07100, Dutscher) and 10% FBS (Cat #SV30160.03C, Dutscher). The Huh7 cell line was maintained in DMEM high glucose (Cat #L0103-500, Dutscher) containing 1% penicillin-streptomycin (Cat #P06-07100, Dutscher) and 10% SVF (Cat #SV30160.03C, Dutscher). Cells lines were cultured at 37° C. with 5% CO2.
(§3) The day before the experiment, 6-well plates with 250,000 cells for HepG2 and 310,000 cells for Huh7 in 1.8 mL of medium per well were prepared. […]
(§4) After 4 hours and 24 hours of cells treatment, the medium was removed from each well. […] Total protein concentration was assessed using the BCA reagent (Cat #23227, ThermoFischer) and cellular lysates were stored at −80° C. until western-blot analysis. […]

[2] = test system: autophagy flux (LC3-II) in HepG2 cell line; experiment: Autophagy flux, LC3-II immunoblot with/without Bafilomycin, HepG2 cell line; format: cell-based; conditions: 24 hours of treatment
Method: as §1, §2, §3, §4

In the case of CC(C)(C)NC1CCN(c2cc(NCc3ccc(F)cc3)nc3ccccc23)CC1 [5-2, 2-(4-fluorobenzylamino)-4-(4-tert-butylaminopiperidin-1-yl)-quinoline hydrochloride salt], the “accumulation of the LC3-II form” value [1] is reported as “significantly induced, in a dose-dependent manner, an accumulation of the LC3-II form”, the “autophagy flux (LC3-II Baf+/Baf− ratio)” value [1] is reported as “inhibitor of the autophagy flux” and the “accumulation of the LC3-II form” value [2] is reported as “significantly induced, in a dose-dependent manner, an accumulation of the LC3-II form”. The “autophagy flux (LC3-II Baf+/Baf− ratio)” value [2] was “inhibitor of the autophagy flux”.

From patent publication US11261189B2, “Substituted 2,4 diamino-quinoline as new medicament for fibrosis, autophagy and cathepsins B (CTSB), L (CTSL) and D (CTSD) related diseases” (Genoscience Pharma, priority 2018, dated 2022)
